# Results published in the supplement of paper PMC8728848.
# The other results are listed elsewhere or left out.
# Legend:
# Test in all cases: glycan array binding signal (z-score within array); higher = stronger binding
# Conditions in all cases: glycan notation: IUPAC condensed, linker removed
# [1] = target: GlcNAc(b1-4)GlcNAc(b1-4)GlcNAc(b1-4)GlcNAc(b1-4)GlcNAc
# Outline: (§1)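 Glycan array data were curated from 3228 arrays in the Consortium for Functional Glycomics database and kept only where the protein sequence was available. Glycan names were converted to IUPAC-condensed notation, and columns mapping to the same glycan were averaged. The binding signal is a within-array Z-score, averaged across arrays of the same protein sequence at different concentrations or buffers and across linkers. Negative Z-scores can be read as non-binding.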
# [2] = target: GlcNAc(b1-4)GlcNAc(b1-4)GlcNAc(b1-4)GlcNAc(b1-4)GlcNAc(b1-4)GlcNAc
# Outline: as §1
# [3] = target: GlcNAc(b1-4)[GlcNAc(b1-6)]GalNAc
# Outline: as §1
# [4] = target: GlcNAc(b1-6)Gal(b1-4)GlcNAc
# Outline: as §1
# GlcNAc(b1-6)GalNAc = target: GlcNAc(b1-6)GalNAc
# Outline: as §1
# [5] = target: GlcNAc6S(b1-3)Gal(b1-4)GlcNAc
# Outline: as §1
# Kdn(a2-3)Gal(b1-3)GalNAc = target: Kdn(a2-3)Gal(b1-3)GalNAc
# Outline: as §1
# Kdn(a2-3)Gal(b1-3)GlcNAc = target: Kdn(a2-3)Gal(b1-3)GlcNAc
# Outline: as §1
# Kdn(a2-3)Gal(b1-4)Glc = target: Kdn(a2-3)Gal(b1-4)Glc
# Outline: as §1
# Kdn(a2-3)Gal(b1-4)GlcNAc = target: Kdn(a2-3)Gal(b1-4)GlcNAc
# Outline: as §1
# [6] = target: Kdn(a2-3)Gal(b1-4)[Fuc(a1-3)]GlcNAc
# Outline: as §1
# Kdn(a2-6)Gal(b1-4)GlcNAc = target: Kdn(a2-6)Gal(b1-4)GlcNAc
# Outline: as §1
# [7] = target: Man(a1-2)Man(a1-2)Man(a1-3)Man
# Outline: as §1
# [8] = target: Man(a1-2)Man(a1-2)Man(a1-6)[Man(a1-3)]Man
# Outline: as §1
# Man(a1-2)Man(a1-3)Man = target: Man(a1-2)Man(a1-3)Man
# Outline: as §1
# [9] = target: Man(a1-2)Man(a1-3)[Man(a1-2)Man(a1-6)]Man
# Outline: as §1
# [10] = target: Man(a1-2)Man(a1-3)[Man(a1-2)Man(a1-6)]Man(a1-6)[Man(a1-2)Man(a1-2)Man(a1-3)]Man
# Outline: as §1
# [11] = target: Man(a1-2)Man(a1-3)[Man(a1-2)Man(a1-6)]Man(a1-6)[Man(a1-2)Man(a1-2)Man(a1-3)]Man(b1-4)GlcNAc(b1-4)GlcNAc
# Outline: as §1
# [12] = target: Man(a1-2)Man(a1-3)[Man(a1-6)]Man(a1-6)[Man(a1-2)Man(a1-3)]Man(b1-4)GlcNAc(b1-4)GlcNAc
# Outline: as §1
# [13] = target: Man(a1-2)Man(a1-6)[Man(a1-3)]Man(a1-6)[Man(a1-2)Man(a1-2)Man(a1-3)]Man
# Outline: as §1
# [14] = target: Man(a1-2)Man(a1-6)[Man(a1-3)]Man(a1-6)[Man(a1-2)Man(a1-2)Man(a1-3)]Man(b1-4)GlcNAc(b1-4)GlcNAc
# Outline: as §1
# Man(a1-3)[Man(a1-6)]Man = target: Man(a1-3)[Man(a1-6)]Man
# Outline: as §1
# [15] = target: Man(a1-3)[Man(a1-6)]Man(a1-6)[Man(a1-2)Man(a1-3)]Man(b1-4)GlcNAc(b1-4)GlcNAc
# Outline: as §1
# [16] = target: Man(a1-3)[Man(a1-6)]Man(a1-6)[Man(a1-3)]Man
# Outline: as §1
# [17] = target: Man(a1-3)[Man(a1-6)]Man(a1-6)[Man(a1-3)]Man(b1-4)GlcNAc(b1-4)GlcNAc
# Outline: as §1
# [18] = target: Man(a1-3)[Man(a1-6)]Man(b1-4)GlcNAc(b1-4)GlcNAc
# Outline: as §1
# [19] = target: Man(a1-3)[Man(a1-6)]Man(b1-4)GlcNAc(b1-4)[Fuc(a1-6)]GlcNAc
# Outline: as §1
# Man(a1-6)Man = target: Man(a1-6)Man
# Outline: as §1
# Man(b1-4)GlcNAc = target: Man(b1-4)GlcNAc
# Outline: as §1
# MurNAc(b1-4)GlcNAc = target: MurNAc(b1-4)GlcNAc
# Outline: as §1
# Neu5Ac(a2-3)Gal = target: Neu5Ac(a2-3)Gal
# Outline: as §1
# [20] = target: Neu5Ac(a2-3)Gal(b1-3)GalNAc
# Outline: as §1
# [21] = target: Neu5Ac(a2-3)Gal(b1-3)GalNAc(b1-3)Gal(a1-4)Gal(b1-4)Glc
# Outline: as §1
# [22] = target: Neu5Ac(a2-3)Gal(b1-3)GalNAc(b1-4)Gal(b1-4)Glc
# Outline: as §1
# [23] = target: Neu5Ac(a2-3)Gal(b1-3)GalNAc(b1-4)[Neu5Ac(a2-3)]Gal(b1-4)Glc
# Outline: as §1
# [24] = target: Neu5Ac(a2-3)Gal(b1-3)GalNAc(b1-4)[Neu5Ac(a2-8)Neu5Ac(a2-3)]Gal(b1-4)Glc
# Outline: as §1
# [25] = target: Neu5Ac(a2-3)Gal(b1-3)GalNAc6S
# Outline: as §1
binder,measurement,setting,value
Epa2 (Candida glabrata) (protein) MGSSHHHHHHSSGLVPRGSHMASSKDPTSFPMGCSPQVLKTQPGLAVKLYSYGHPVPGCAYNTYQYPDFPRSGYKKERKLADITGVNGRIDIDLKPNDPCRVLSGNLPSNYNYQNTLTYTNFTMILYGYFQPKVTGYHTFNLEADDLLFMNLGAGNAFDCCRAESTLDNFGNYQSYSIWGTDKATADLTVFLVSGIYYPIRLFYVNRDNNAVLDFSFSTEFNKEIIHDFTSYFFSASDEEQCPGNI,glycan array binding signal (z-score),[1],0.017
same,glycan array binding signal (z-score),[2],-0.072
same,glycan array binding signal (z-score),[3],-0.769
same,glycan array binding signal (z-score),[4],0.895
same,glycan array binding signal (z-score),GlcNAc(b1-6)GalNAc,-0.198
same,glycan array binding signal (z-score),[5],0.793
same,glycan array binding signal (z-score),Kdn(a2-3)Gal(b1-3)GalNAc,2.25
same,glycan array binding signal (z-score),Kdn(a2-3)Gal(b1-3)GlcNAc,-0.787
same,glycan array binding signal (z-score),Kdn(a2-3)Gal(b1-4)Glc,0.103
same,glycan array binding signal (z-score),Kdn(a2-3)Gal(b1-4)GlcNAc,-0.501
same,glycan array binding signal (z-score),[6],0.545
same,glycan array binding signal (z-score),Kdn(a2-6)Gal(b1-4)GlcNAc,0.369
same,glycan array binding signal (z-score),[7],0.007
same,glycan array binding signal (z-score),[8],0.263
same,glycan array binding signal (z-score),Man(a1-2)Man(a1-3)Man,-0.608
same,glycan array binding signal (z-score),[9],-0.632
same,glycan array binding signal (z-score),[10],-0.808
same,glycan array binding signal (z-score),[11],-0.098
same,glycan array binding signal (z-score),[12],-1.18
same,glycan array binding signal (z-score),[13],-0.217
same,glycan array binding signal (z-score),[14],-0.451
same,glycan array binding signal (z-score),Man(a1-3)[Man(a1-6)]Man,0.472
same,glycan array binding signal (z-score),[15],1.13
same,glycan array binding signal (z-score),[16],0.286
same,glycan array binding signal (z-score),[17],0.287
same,glycan array binding signal (z-score),[18],-0.254
same,glycan array binding signal (z-score),[19],0.449
same,glycan array binding signal (z-score),Man(a1-6)Man,0.561
same,glycan array binding signal (z-score),Man(b1-4)GlcNAc,0.822
same,glycan array binding signal (z-score),MurNAc(b1-4)GlcNAc,0.27
same,glycan array binding signal (z-score),Neu5Ac(a2-3)Gal,0.709
same,glycan array binding signal (z-score),[20],-0.038
same,glycan array binding signal (z-score),[21],0.662
same,glycan array binding signal (z-score),[22],0.284
same,glycan array binding signal (z-score),[23],-0.342
same,glycan array binding signal (z-score),[24],-0.389
same,glycan array binding signal (z-score),[25],-0.993

# No new results follow: entries from further up.
binder,measurement,setting,value
Epa2 (Candida glabrata) (protein) MGSSHHHHHHSSGLVPRGSHMASSKDPTSFPMGCSPQVLKTQPGLAVKLYSYGHPVPGCAYNTYQYPDFPRSGYKKERKLADITGVNGRIDIDLKPNDPCRVLSGNLPSNYNYQNTLTYTNFTMILYGYFQPKVTGYHTFNLEADDLLFMNLGAGNAFDCCRAESTLDNFGNYQSYSIWGTDKATADLTVFLVSGIYYPIRLFYVNRDNNAVLDFSFSTEFNKEIIHDFTSYFFSASDEEQCPGNI,glycan array binding signal (z-score),[3],-0.769
same,glycan array binding signal (z-score),[4],0.895
